# Source: the supplement of paper PMC12823440, “Inhibitors supercharge kinase turnover through native proteolytic circuits” (Nature, 2025)
# Sequences of proteins named here, by UniProt entry; tags and fusion partners are left off.
# UniProt Q9UQM7, whole entry: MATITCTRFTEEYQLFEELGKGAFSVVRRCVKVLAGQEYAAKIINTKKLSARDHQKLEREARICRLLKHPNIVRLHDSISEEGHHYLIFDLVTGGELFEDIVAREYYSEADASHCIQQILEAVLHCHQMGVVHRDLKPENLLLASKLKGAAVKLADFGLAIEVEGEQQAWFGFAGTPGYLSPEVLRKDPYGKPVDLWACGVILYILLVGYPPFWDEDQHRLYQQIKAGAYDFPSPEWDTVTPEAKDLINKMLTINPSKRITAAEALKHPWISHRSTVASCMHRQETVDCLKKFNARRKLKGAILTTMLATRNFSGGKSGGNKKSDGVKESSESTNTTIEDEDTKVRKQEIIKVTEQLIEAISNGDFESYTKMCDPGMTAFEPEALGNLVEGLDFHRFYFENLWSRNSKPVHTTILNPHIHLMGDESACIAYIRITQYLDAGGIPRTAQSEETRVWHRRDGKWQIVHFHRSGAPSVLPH
# The list shows a part of the results. The calls rarely recur for the same compound in another form.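 Kinases, fused to nanoluciferase, were expressed in K562 cells; luminescence was measured every 4 h from 2 to 18 h as percent of control (DMSO = 100%, positive control = 0%). A time point is decreased if signal falls significantly (2 sigma). Hits were called by the authors by a rule that is not shown; the count of time points alone does not decide it.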
# Molecular target: CAMK2A (UniProt Q9UQM7)
# Assay: kinase-Nluc reporter destabilization hit call (1 = scored as downregulated) (binary); higher = compound decreases kinase abundance
# Details: K562; 2-18 h
row,SMILES,kinase-Nluc reporter destabilization hit call
1,O=c1cc(O)c2ccccc2o1 [4-Hydroxycoumarin] (10 µM),inactive: 0
2,CCCCNc1nc(N)c2[nH]c(=O)n(Cc3ccc(C)nc3)c2n1 (10 µM),inactive: 0
3,CCCS(=O)(=O)Nc1ccc(F)c(-n2cc(-c3cncnc3)c3nc(N(C)C4CCN(CC)CC4)ccc32)c1F (2 µM),inactive: 0
4,C[C@H]1CC[C@]2(NC1)O[C@H]1C[C@H]3[C@@H]4CC[C@H]5C[C@@H](O[C@@H]6O[C@H](CO)[C@H](O[C@@H]7O[C@H](CO)[C@@H](O)[C@H](O[C@@H]8OC[C@@H](O)[C@H](O)[C@H]8O)[C@H]7O[C@@H]7O[C@H](CO)[C@@H](O)[C@H](O)[C@H]7O)[C@H](O)[C@H]6O)CC[C@]5(C)[C@H]4CC[C@]3(C)[C@H]1[C@@H]2C [Tomatine] (2.5 µM),inactive: 0
5,Cc1n[nH]cc1-c1cc2nc([C@@H]3CC4CCN3CC4)[nH]c(=O)c2s1 [Simurosertib] (2.5 µM),inactive: 0
6,O=Cc1cn(Cc2ccc(Cl)cc2)c2ccccc12 [Oncrasin-1] (10 µM),inactive: 0
7,CC(=O)OC(C)(C)/C=C/C(=O)[C@](C)(O)[C@H]1[C@H](O)C[C@@]2(C)[C@@H]3CC=C4[C@@H](C=C(O)C(=O)C4(C)C)[C@]3(C)C(=O)C[C@]12C [Cucurbitacin E] (2.5 µM),inactive: 0
8,C[C@@H]1CC[C@H]2[C@@H](C)C(=O)O[C@@H]3O[C@@]4(C)CC[C@@H]1[C@]32OO4 [Artemisinin] (10 µM),inactive: 0
